PubChem BioAssay AID1688 (National Center for Advancing Translational Sciences (NCATS), 2009)
The campaign covered roughly 220,000 compounds. About 2,400 (1.1%) were called active. This list was built around the results that the source calls inconclusive (neither active nor inactive); the mix of calls is not that of the screen. The call rests on the fitted dose curve; in most records, active means well fitted inhibition curve with a large enough effect; inconclusive means small, poorly fitted or top-dose-only effect, or effect the other way; inactive means no such curve, though single readings can be large or run the other way. A potency beside an inconclusive call is a rough fit, not a confirmed value.

Assay: qHTS Multiplex Assay to Identify Dual Action Probes in a Cell Model of Huntington: Aggregate Formation (GFP); further: nearly all actives have a fitted effect of over 60% in size
Conditions: PC12 HttQ103-GFP aggregates, Acumen cytometry, 40 h; activity change, negative = inhibition: at 46.1 µM (top of the series) unless noted
Summary of the method: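 Quantitative HTS on tebufenozide-induced (100 nM) PC12 cells stably expressing polyQ103 Huntingtin exon 1–GFP. Reduction of bright GFP aggregates, detected by laser scanning cytometry after lysis, identified actives across the titration.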
On the % scale 0 is the no-effect control and ±100 the full control effect; potency means the concentration at half of the fitted maximal effect.

Structure (SMILES) | Potency | activity change, negative = inhibition
CC12CC(NC(=O)N1CCc1ccccc1)c1cc(Cl)ccc1O2 (stereo not drawn) | inconclusive: 35.5 µM [inhibitor, single point] | 
CCn1cc(C(=O)N2CCc3ccccc3C2)c(=O)c2cc(S(=O)(=O)N3CCCCC3)ccc21 | inactive | 
Cc1ccc(Cn2ccc(=O)c(OCc3ccccc3)c2C)cc1 | inconclusive: 22.4 µM [inhibitor, single point] | 
CCn1nnnc1SCC(=O)Nc1ccc(OCc2ccccc2)cc1 | inconclusive: 0.708 µM [inhibitor, single point] | 
COc1ccc(C2C=C(c3ccc(Br)s3)Nc3ncnn32)cc1OC (stereo not drawn) | active: 11.2 µM | 
O=C(Nc1ccc(Sc2ccc(Br)cc2)cc1)c1ccco1 | inconclusive: 22.4 µM [inhibitor, single point] | 
O=C(CCl)N(c1ccccc1)C1CCS(=O)(=O)C1 (stereo not drawn) | active: 8.91 µM | 
Cc1cc(C(=O)NCCC2=CCCCC2)c(C)o1 | inconclusive: 22.4 µM [activator, single point] | 
CC12COC3(C(=O)Nc4cccnc4)CC1CCC32C (stereo not drawn) | inactive | 
O=C(N/N=C/c1ccccn1)C12CC3CC(CC(C3)C1)C2 | inconclusive: 7.08 µM [inhibitor, full curve, poor fit] | 
Cc1[nH]n2c(=O)c3c(nc2c1-c1ccc(Cl)cc1)CCC3 | inconclusive: 1.78 µM [inhibitor, partial curve, poor fit] | 
CC(=O)N(CC(O)CN(C(C)=O)c1c(I)c(C(=O)NC[C@@H](O)CO)c(I)c(C(=O)NC[C@@H](O)CO)c1I)c1c(I)c(C(=O)NC[C@@H](O)CO)c(I)c(C(=O)NC[C@@H](O)CO)c1I | inactive | 
Cc1noc(C)c1CSc1nc2ccccc2nc1NS(=O)(=O)c1ccc(Cl)cc1 | inconclusive: 15.8 µM [inhibitor, single point] | 
Cc1cccc(N2CCN(C(=O)C(Cc3ccccc3)n3cccc3)CC2)c1C (stereo not drawn) | inconclusive: 20 µM [inhibitor, single point] | 
COC(=O)c1cc(=O)n(Cc2ccc(OC)c(OC)c2)c(=Nc2ccc(F)cc2)s1 | inconclusive: 35.5 µM [inhibitor, single point] | 
O=C(/C=C/c1ccc(Cl)c(Cl)c1)n1cccn1 | inactive | 
CCCN1CC=C2C(C#N)=C(N)C(C#N)(C#N)C(c3cc(OC)ccc3OC)C2C1 (stereo not drawn) | inconclusive: 14.1 µM [activator, single point] | 
CC1(C)CC(=O)C2=C(C1)OC1=C(C(=O)CC(C)(C)C1)C2c1ccc(O)cc1O | inconclusive: 35.5 µM [inhibitor, single point] | 
O=c1c2c(-c3ccccc3)csc2nc2c3ccccc3c(NCCN3CCOCC3)nn12 | inconclusive: 22.4 µM [inhibitor, single point] | 
COc1cccc(/C=C/C(=O)Nc2ccc3nc4n(c(=O)c3c2)CCCC4)c1OC | inconclusive: 3.16 µM [inhibitor, single point] | 
O=[N+]([O-])c1ccc(-n2cnc3ccccc32)c([N+](=O)[O-])c1 | inconclusive: 15.8 µM [inhibitor, single point] | 
O=C(CNC(=O)c1ccccc1Br)N/N=C/c1ccccc1O | active: 10 µM | 
O=C(NCCc1c[nH]c2ccccc12)c1c(Cl)nc2sccn12 | inconclusive: 5.62 µM [activator, single point] | 

Structure (SMILES) | Potency | activity change, negative = inhibition
CCCCN(CC)C(=O)/C=C/c1cccc([N+](=O)[O-])c1 | inconclusive: 5.62 µM [activator, single point] | 
Fc1cccc2sc(Nc3nnc(-c4ccco4)o3)nc12 | inconclusive: 0.0251 µM [inhibitor, full curve, poor fit] | 
CCCCC(=O)N/N=C(\C)c1cccc(NC(=O)C2CC2)c1 | inconclusive: 20 µM [inhibitor, partial curve] | 
Nc1ncc(Br)cc1N=Cc1ccccc1 | inconclusive: 2.82 µM [activator, full curve] | 
Cc1ccc(N=C2NC(=O)/C(=C/C=C/c3ccco3)S2)cc1 | inconclusive: 17.8 µM [activator, single point] | 
CC(=O)Nc1ncnc2c1c(-c1ccc(Cl)cc1)nn2C(C)(C)C | inconclusive: 12.6 µM [inhibitor, partial curve] | 
COc1ccc2cc(C(=O)N/N=C/c3sc4ccccc4c3O)ccc2c1 | inconclusive: 15.8 µM [inhibitor, single point] | 
Cc1cccc(C)c1OCC(O)CN1CCC(CN2C(=O)c3cccc4cccc(c34)C2=O)CC1 (stereo not drawn) | inconclusive: 35.5 µM [inhibitor, single point] | 
CCN(CC)CCCCCOc1ccccc1OC | inactive | 
CC(C)Cn1c(N)c(C(=O)COC(=O)c2ccccc2F)c(=O)n(C)c1=O | inactive | 
O=C1C2C3C=CC(C4CC34)C2C(=O)N1/N=C/c1ccc([N+](=O)[O-])o1 (stereo not drawn) | inconclusive: 31.6 µM [inhibitor, partial curve] | 
COc1ccc(NS(=O)(=O)c2ccc(-n3nnc4ccccc43)c([N+](=O)[O-])c2)cc1 |  | inactive: -9.76% [at 9.22 µM]
CCCN(CCC)C(=O)CSc1nc2ccccc2c(=O)n1CC1COc2ccccc2O1 (stereo not drawn) | inconclusive: 35.5 µM [inhibitor, single point] | 
Cn1cc(CC(=O)N2CCN(c3ccc(Cl)cc3)CC2)c2ccccc21 | inconclusive: 35.5 µM [inhibitor, single point] | 
O=C(CSC1CC(=O)N(CCc2ccccc2)C1=O)Nc1cccc(Cl)c1 (stereo not drawn) | inactive | 
CC(=O)Oc1ccc(NC(=O)CSc2ccccc2)cc1 | inconclusive: 5.62 µM [activator, single point] | 
N#Cc1c(N)nc2c(c1-c1cccnc1)CCCCC2 | inconclusive: 22.4 µM [inhibitor, partial curve] | 
O=C(CCC1CCCCC1)Nc1c2c(nn1-c1ccc(F)cc1)CS(=O)(=O)C2 | inactive | 
COc1ccc(-n2c(C)cc(C(=O)CSc3ccc(NC(C)=O)cc3)c2C)cc1 | active: 12.6 µM | 
O=C1CC(c2cccc([N+](=O)[O-])c2)c2ccc3ccccc3c2N1 (stereo not drawn) | inconclusive: 11.2 µM [inhibitor, single point] | 
c1ccc(-c2ccc(-c3cnc4n3CCCCC4)cc2)cc1 | inconclusive: 35.5 µM [inhibitor, single point] | 
CCCCCCn1c(COc2ccccc2F)nnc1SCC(=O)N1c2ccccc2NC(=O)C1(C)C | inconclusive: 14.1 µM [inhibitor, single point] | 
CCCCCCCCCC(=O)N/N=C(\C)c1cccnc1 | inconclusive: 35.5 µM [inhibitor, single point] | 

Structure (SMILES) | Potency | activity change, negative = inhibition
COCCCNC(=S)Nc1ccccc1[N+](=O)[O-] | inconclusive: 6.31 µM [inhibitor, single point] | 
COCc1cc(C)nc(N2CCc3ccccc32)c1C#N | inconclusive: 5.62 µM [activator, single point] | 
CCCC(=O)OCC(=O)NCc1ccc(Cl)cc1 | inactive | 
Cc1cccc(NCCNc2cccc(C)c2)c1 | inconclusive: 25.1 µM [inhibitor, single point] | 
CN(c1ccccc1)S(=O)(=O)c1ccc(Cl)c(C(=O)Nc2nc3ccccc3[nH]2)c1 | inconclusive: 25.1 µM [inhibitor, single point] | 
COc1cc(OC)nc(NC(=O)CS(=O)(=O)c2ccccc2)n1 | inactive | 
COc1ccccc1CNC(=O)CCCOc1cc(=O)n(C)c2ccccc12 | inconclusive: 5.62 µM [activator, full curve] | 
CC(CN1CCOCC1)OC(=O)c1ccccc1Br (stereo not drawn) | inconclusive: 5.62 µM [inhibitor, single point] | 
OC(CNCC1(N2CCCCC2)CCCCC1)COc1ccc(Cl)cc1Cl (stereo not drawn) | inconclusive: 1.26 µM [activator, full curve, poor fit] | 
Cc1ccc(C)c(OCc2nc3ccc(S(=O)(=O)Nc4c(C)n(C)n(-c5ccccc5)c4=O)cc3[nH]2)c1 | inconclusive: 17.8 µM [inhibitor, single point] | 
COc1ccc(NC(=O)CSc2c3c(nc4cc(Cl)ccc24)CCCC3)cc1OC | inconclusive: 3.55 µM [activator, single point] | 
OC1(c2ccccc2)CCN(Cc2ccccc2)C2CCCCC21 (stereo not drawn) | inconclusive: 28.2 µM [inhibitor, single point] | 
Nc1ccc2nc(-c3cccnc3)[nH]c2c1 | inconclusive: 7.08 µM [activator, full curve, poor fit] | 
COc1cc2nc(N3CCN(C(=O)[C@@H]4COc5ccccc5O4)CC3)nc(N)c2cc1OC | inactive | 
Cc1ccc(NC(=O)c2ccc(=O)[nH]c2)cc1S(=O)(=O)N1CCCCC1 |  | inactive: -11.1% [at 9.22 µM]
CCN=c1scc(-c2ccc(F)cc2)n1/N=C/c1ccccn1 | inconclusive: 35.5 µM [inhibitor, single point] | 
CCCCCCCN1N=C(C)C(C(=O)c2ccccc2)C1=O (stereo not drawn) | inconclusive: 35.5 µM [inhibitor, single point] | 
CCCN1CN(CCc2ccccc2)CNC1=S | inactive | 
CSc1nc(NC(C)(C)C)nc(Oc2ccc(=O)n(C)n2)n1 | inconclusive: 5.62 µM [activator, full curve, poor fit] | 
Cn1c(SCC(=O)c2ccc(-c3ccccc3)cc2)nnc1-c1ccco1 | inactive | 
Cc1ccc(C(=O)NC(NC(=O)c2ccc(C)cc2)c2cccc([N+](=O)[O-])c2)cc1 | inconclusive: 1.26 µM [activator, single point] | 
COc1ccc(N2C(=O)CC(Sc3nnc(-c4ccccc4F)n3C)C2=O)cc1 (stereo not drawn) | inconclusive: 35.5 µM [inhibitor, single point] | 

A section of the results above:
Structure (SMILES) | Potency | activity change, negative = inhibition
CCCC(=O)OCC(=O)NCc1ccc(Cl)cc1 | inactive | 
Cc1cccc(NCCNc2cccc(C)c2)c1 | inconclusive: 25.1 µM [inhibitor, single point] | 
CN(c1ccccc1)S(=O)(=O)c1ccc(Cl)c(C(=O)Nc2nc3ccccc3[nH]2)c1 | inconclusive: 25.1 µM [inhibitor, single point] | 
COc1cc(OC)nc(NC(=O)CS(=O)(=O)c2ccccc2)n1 | inactive | 
